Results published in publication doi:10.1101/709196 (bioRxiv, 2019).
No constants are given. Whether binding was seen depends on the method and setting. Where a sequence is shown, tags or fusion partners need not be part of it.

Target: SS-EGFP-SUN2^595-731 (UniProt Q8BJS4)
Assay: dual-color fluorescence fluctuation spectroscopy

- binding: no binding
B1: SS-EGFP-SUN2^595-731 (domain or fragment, UniProt Q8BJS4 595-731)
chain: LWYHSQSPRVILQPDVHPGNCWAFQGPQGFAVVRLSARIRPTAVTLEHVPKALSPNSTISSAPKDFAIFGFDEDLQQEGTLLGTFAYDQDGEPIQTFYFQASKMATYQVVELRILTNWGHPEYTCIYRFRVHGEPAH
